Results are given in words; binding and its absence hold for the method and conditions named. For some of these results: Binding seen in cells or lysates may run through a third protein. Some results given as binding are weak or reduced against the parent protein; the word gives no strength. For some of these results: Where a sequence is shown, tags or fusion partners need not be part of it.
Key:
[1] = molecular target: T1, endogenous CC chemokine receptor 10 of UKRV-Mel-4 melanoma cells (human (endogenous in UKRV-Mel-4)) (UniProt P46092); assay: proximity ligation; Duolink II in situ PLA on fixed UKRV-Mel-4 cells with primary antibodies against CCR10 and β-actin, S100A10 (H21) or anxA2 (HH7); cells transfected with control siRNA or S100A10 siRNA
T1 sequence: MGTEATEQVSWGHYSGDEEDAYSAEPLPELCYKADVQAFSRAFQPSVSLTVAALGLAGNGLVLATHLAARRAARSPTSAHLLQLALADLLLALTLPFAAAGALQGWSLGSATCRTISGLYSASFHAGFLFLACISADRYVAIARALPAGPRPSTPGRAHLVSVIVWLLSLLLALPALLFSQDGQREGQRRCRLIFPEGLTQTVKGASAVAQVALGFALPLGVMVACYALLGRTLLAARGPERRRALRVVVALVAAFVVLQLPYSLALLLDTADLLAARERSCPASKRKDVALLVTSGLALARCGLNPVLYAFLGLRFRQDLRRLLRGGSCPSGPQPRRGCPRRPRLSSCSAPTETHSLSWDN

Sequences of proteins named here, by UniProt entry; tags and fusion partners are left off.
UniProt P60903: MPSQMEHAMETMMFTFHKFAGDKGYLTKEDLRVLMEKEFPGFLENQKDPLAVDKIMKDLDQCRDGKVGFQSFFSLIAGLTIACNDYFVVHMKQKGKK
UniProt P07355: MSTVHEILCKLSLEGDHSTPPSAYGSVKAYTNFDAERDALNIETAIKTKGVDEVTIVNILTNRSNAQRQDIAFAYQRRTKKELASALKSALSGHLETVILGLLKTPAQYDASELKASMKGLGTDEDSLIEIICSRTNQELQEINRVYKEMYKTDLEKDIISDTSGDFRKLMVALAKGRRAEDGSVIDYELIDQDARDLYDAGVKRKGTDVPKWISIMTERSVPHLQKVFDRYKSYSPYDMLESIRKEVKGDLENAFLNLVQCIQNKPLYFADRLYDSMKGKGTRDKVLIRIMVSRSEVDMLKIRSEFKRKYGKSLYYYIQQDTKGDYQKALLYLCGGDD

[2] = molecular target: T2, GST-CCR10 CT (C-terminal cytoplasmic tail of human CCR10 fused to GST) (human) (UniProt P46092); assay: pull-down; GST fusion proteins (50 μg) on glutathione sepharose beads incubated with UKRV-Mel-4 cell lysate (500 μl, ~2 × 10^7 cells), 2 hours at 4 °C, IP buffer (20 mM Tris-HCl pH 7.5, 25 mM NaCl, 10 mM NaF, 1 mM EDTA, 0.1% Triton-X 100); immunoblot; only the target purified
T2 sequence: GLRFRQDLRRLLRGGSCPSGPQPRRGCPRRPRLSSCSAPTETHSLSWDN

[3] = molecular target: T2, GST-CCR10 CT (C-terminal cytoplasmic tail of human CCR10 fused to GST) (human); assay: pull-down; GST fusion proteins (50 μg) on glutathione sepharose beads incubated with purified protein (10 μg), 2 hours at 4 °C, IP buffer (20 mM Tris-HCl pH 7.5, 25 mM NaCl, 10 mM NaF, 1 mM EDTA, 0.1% Triton-X 100); immunoblot; both purified
[4] = molecular target: T3, GST-CCR10 CT truncation mutant T2 (human) (UniProt P46092); assay: as above
T3 sequence: GLRFRQDLRRLL

Substance: endogenous S100A10 of UKRV-Mel-4 melanoma cells (from UniProt P60903 1-97)
- binding [1]: binds
- binding [2]: binds

Substance: purified recombinant human annexin A2 (from UniProt P07355 1-339)
- binding [3]: no binding (tested: 10 μg purified protein)

Substance: recombinant HIS-tagged human S100A10 (wild type) (from UniProt P60903 1-97)
- binding [4]: binds weakly

From publication PMC4778132, “CC chemokine receptor 10 cell surface presentation in melanocytes is regulated by the novel interaction partner S100A10” (Scientific Reports, 2016)
